Taken from: PubChem BioAssay AID1259424 (University of Nebraska Medical Center, 2018)
The whole screen tested about 14,000 reagents; this is an unselected part. 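Higher correlation or smaller distance means closer resemblance to KSR1 loss; control wells, including KSR1 knockdowns, recur on many plates.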 Not stated in the record: the time to read-out.

- Aim: 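Seek colon cancer survival genes behaving like KSR1, using a six-gene signature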 (primary screen)
- Cells: human HCT116 colon cancer cells
- Knock-down reagent: siRNA pool against human genes, 50 nM
- Read-out: 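Six signature mRNAs by branched-DNA multiplex assay, scaled to two housekeeping genes and non-targeting median, log2; matched to mean KSR1 knockdown profile by Pearson correlation and euclidean distance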
- Direction: mean correlation with KSR1 profile and KSR1 correlation: higher = expression change more like KSR1 knockdown; mean distance from KSR1 profile: higher = expression change less like KSR1 knockdown

The opening 4 records as a preview:
mean correlation with KSR1 profile | mean distance from KSR1 profile | KSR1 correlation, replicate 1 | KSR1 correlation, replicate 2 | KSR1 correlation, replicate 3 | Target gene
0.311 | 1.24 | 0.277 | 0.124 | 0.675 | POU3F4
0.116 | 1.29 | -0.147 | -0.0631 | 0.4 | PEX2
-0.602 | 3.56 | -0.699 | -0.545 | -0.569 | ECEL1
-0.161 | 2.52 | -0.126 | 0.0442 | -0.332 | CRYAB

The listing, from the first entry:
mean correlation with KSR1 profile | mean distance from KSR1 profile | KSR1 correlation, replicate 1 | KSR1 correlation, replicate 2 | KSR1 correlation, replicate 3 | Target gene
0.311 | 1.24 | 0.277 | 0.124 | 0.675 | POU3F4
0.116 | 1.29 | -0.147 | -0.0631 | 0.4 | PEX2
-0.602 | 3.56 | -0.699 | -0.545 | -0.569 | ECEL1
-0.161 | 2.52 | -0.126 | 0.0442 | -0.332 | CRYAB
0.273 | 2.25 | 0.113 | 0.0685 | 0.441 | HELLS
0.643 | 1.53 | 0.737 | 0.73 | 0.0966 | AKAP7
0.619 | 1.07 | 0.541 | 0.365 | 0.704 | ALDH3A2
0.233 | 2.21 | 0.28 | 0.435 | -0.00683 | PRM1
0.86 | 2.48 | 0.761 | 0.771 | 0.869 | ZCCHC9
0.0347 | 2.62 | -0.00159 | 0.0417 | 0.0236 | AURKA
0.23 | 1.68 | 0.26 | 0.557 | -0.178 | CAPZA1
-0.395 | 2.03 | -0.391 | -0.398 | -0.577 | RSAD2
0.268 | 3.79 | 0.154 | 0.269 | 0.356 | ZFAND3
0.147 | 2.52 | -0.0375 | 0.137 | 0.2 | SYNC
-0.383 | 1.45 | -0.298 | -0.338 | -0.423 | PRSS23
-0.526 | 1.51 | -0.411 | -0.701 | -0.706 | SRSF9
-0.626 | 3.62 | -0.539 | -0.581 | -0.754 | STAT6
0.191 | 1.22 | 0.203 | 0.226 | 0.29 | IL21
0.609 | 2.69 | 0.696 | 0.691 | 0.555 | PTK2B
-0.327 | 1.44 | 0.209 | -0.467 | -0.797 | VAMP5
0.346 | 1.64 | 0.258 | 0.171 | 0.228 | HSDL1
-0.218 | 2.95 | -0.00925 | -0.457 | -0.506 | THSD4
0.789 | 1.4 | 0.702 | 0.618 | 0.793 | KIRREL2
-0.0585 | 1.78 | 0.0539 | 0.036 | -0.698 | HDAC8
-0.555 | 2.4 | -0.789 | -0.387 | -0.596 | CIITA
0.119 | 0.969 | 0.0182 | -0.421 | 0.559 | CIAO3
-0.196 | 1.3 | -0.117 | -0.0784 | -0.361 | FAM135B
0.703 | 2.16 | 0.495 | 0.708 | 0.899 | KRCC1
-0.496 | 1.28 | -0.466 | -0.317 | -0.883 | EPAS1
-0.123 | 3.12 | 0.00565 | -0.187 | -0.428 | NKIRAS1
0.28 | 1.53 | 0.23 | 0.354 | 0.101 | GLUD1
-0.209 | 2.5 | -0.203 | -0.153 | -0.312 | ZMIZ1
-0.0855 | 2.09 | -0.111 | -0.291 | 0.0513 | HLA-DRB5
0.38 | 1.09 | 0.406 | 0.0545 | 0.258 | MRPL41
0.261 | 2.27 | 0.365 | 0.234 | 0.205 | DHRS2
0.407 | 2.32 | 0.432 | 0.401 | 0.224 | CD52
-0.574 | 3 | -0.351 | -0.752 | -0.434 | SRP72
0.586 | 3.75 | 0.526 | 0.463 | 0.621 | SIVA1
-0.12 | 3.61 | -0.0594 | -0.314 | -0.245 | UBQLN4
-0.0591 | 4.89 | -0.0168 | 0.0642 | -0.25 | DYNC1I2
-0.042 | 1.29 | -0.237 | -0.0335 | -0.0261 | KIAA1143
0.368 | 1.64 | 0.539 | 0.0339 | 0.439 | RUSC1
-0.239 | 2.82 | -0.381 | -0.0852 | -0.248 | MLNR
-0.0812 | 1.59 | -0.0481 | -0.213 | 0.0551 | TRIM10
0.738 | 0.873 | 0.388 | 0.425 | 0.743 | NCBP1
0.497 | 2.65 | 0.581 | 0.652 | 0.309 | TREML2
0.693 | 0.832 | 0.442 | 0.906 | -0.1 | RAPGEF4
-0.53 | 2.11 | -0.798 | -0.55 | -0.501 | BRWD1
-0.807 | 2.58 | -0.747 | -0.859 | -0.723 | HERC4
-0.128 | 3.69 | -0.0251 | -0.173 | -0.215 | MATN1
